This experiment concerns the target T1, GFP-PsAvh262 (N-terminal GFP-tagged PsAvh262 without the N-terminal secretion signal peptide 1-18 aa) (Phytophthora sojae) (UniProt E0W5H5).
T1 sequence: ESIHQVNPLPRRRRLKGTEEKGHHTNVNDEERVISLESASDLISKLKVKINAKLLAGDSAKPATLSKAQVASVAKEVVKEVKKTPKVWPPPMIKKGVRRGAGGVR
Nature of the experiment: affinity purification with mass spectrometry; GFP-PsAvh262 expressed in N. benthamiana leaves; 5 ml total protein extract with 30 ul GFP-Trap_A beads, 4 °C, 3 h; lysis buffer 10 mM Tris-Cl pH 7.5, 150 mM NaCl, 0.5 mM EDTA, 0.5% NP-40; LC-MS/MS against N. tabacum sequences.

Results are given in words; binding and its absence hold for the method and conditions named. Binding seen in cells or lysates may run through a third protein. These calls come from enrichment with a bait or labelling near it, and not all partners need be listed. Where a sequence is shown, tags or fusion partners need not be part of it.

Take “NbBiP5 (PsAvh262-associated N. benthamiana ER-luminal binding immunoglobulin protein)”: the binding entry is recorded as “binds”.

The values above are taken from PMC4895818.
